# About 770 (0.35%) of roughly 220,000 compounds were called active. The inconclusive results got no clear call from the source; some entries with a clear call stand among them for comparison. Cut-off read from the data, not from the text of the source: active = binding response below about 49% or above about 150%; inconclusive = no clear call, values can overlap the other calls; inactive = in between.
# Amino acid sequences for entries named in this document (tags omitted).
# UniProt P09471, whole entry, looked up: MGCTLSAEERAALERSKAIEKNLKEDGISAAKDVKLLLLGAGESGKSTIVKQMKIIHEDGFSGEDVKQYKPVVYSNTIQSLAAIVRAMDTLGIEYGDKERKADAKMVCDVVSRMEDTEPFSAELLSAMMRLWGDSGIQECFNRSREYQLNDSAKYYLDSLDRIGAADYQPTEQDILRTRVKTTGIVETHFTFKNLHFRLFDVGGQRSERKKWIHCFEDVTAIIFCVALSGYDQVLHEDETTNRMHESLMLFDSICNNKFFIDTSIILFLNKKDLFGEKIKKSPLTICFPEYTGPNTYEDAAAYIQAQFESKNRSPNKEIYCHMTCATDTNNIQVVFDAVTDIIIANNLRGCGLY
# Molecular target: Guanine nucleotide-binding protein G(o) subunit alpha (Homo sapiens) (UniProt P09471)
# Assay: RGS7-Galphao binding modulators, primary screen, biochemical, multiplexed bead flow cytometry (AID 1439);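 note: fluorescent Galphao held in activated GDP-AlF4 state binding bead-coupled RGS7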
# Settings: at 10 µM, actives lie on both sides
row,Compound,binding response (% of control)
1,O=C(NCc1ccc(-c2csnn2)cc1)C1CC1,inconclusive: 88.3%
2,O=C(O)c1ccc2c(c1Sc1ccccc1)C(=O)c1ccccc1C2=O,inconclusive: 101%
3,Cc1ccc(CSc2nccc(-c3c(C)nc4ccccn34)n2)cc1,inconclusive: 85.8%
4,COC(=O)c1cc(-c2ccc(NC(C)=O)cc2)nc2ccccc12,inconclusive: 89.3%
5,COc1ccc(-n2c(N)cc(=O)[nH]c2=O)cc1,inconclusive: 104%
6,CCC1CCCCN1C(=S)NC(=O)c1cc(S(=O)(=O)N2CCOCC2)ccc1C (stereo unspecified),inconclusive: 104%
7,COc1ccc(C(=O)NC(=S)N2CCOCC2)cc1OC,inactive: 103%
8,CC1(C)C(CSc2nc3ccccc3[nH]2)C1(Cl)Cl (stereo unspecified),inactive: 99.4%
9,COc1ccc(-c2cnc3n2CCCCC3)cc1,inconclusive: 149%
10,O=C(NC1CCCC1)C(c1cc2c(cc1[N+](=O)[O-])OCO2)N1CCCC1 (stereo unspecified),inconclusive: 99.3%
11,CCOc1ccccc1NC(=O)Nc1ccc(CC#N)cc1,inconclusive: 90.4%
12,COc1ccc(N(C)C(=O)c2oc(=O)c3ccccc3c2-c2ccc(C)cc2)c(OC)c1,inconclusive: 72.4%
13,CC(C)S(=O)(=O)c1cnc(-c2ccccn2)nc1N,inconclusive: -29.5%
14,Cc1ccc(NS(=O)(=O)c2ccc(C(=O)OCC(=O)NCC3CCCO3)cc2)cc1 (stereo unspecified),inconclusive: 113%
15,CCOC(=O)c1nc2sc3c(c2c(=O)[nH]1)CCCC3,inconclusive: 139%
16,COc1ccc(-c2cc3nc4ccccc4n3c(N)c2C#N)cc1,inconclusive: 99.9%
17,c1ccc2c(C3=NNC(=NC4CC4)SC3)c[nH]c2c1,inactive: 96.5%
18,Cc1ccc(C(=O)N2CCN(c3ccc([N+](=O)[O-])cc3-n3cccc3)CC2)cc1,inconclusive: 91.7%
19,O=C(/C=C/c1ccccc1)NC(NC(=S)Nc1cc(Cl)ccc1Cl)C(Cl)(Cl)Cl (stereo unspecified),inactive: 109%
20,COCCCNC(=O)COc1ccc(S(=O)(=O)NCc2ccccc2)cc1Cl,active: 275% [activator]
21,Cc1cc(C)c2nc(-c3ccccn3)cc(C(=O)n3cccn3)c2c1,inconclusive: 112%
22,CSc1nnc(NC(=O)c2cc(=O)c3cc(C)cc(C)c3o2)s1,inconclusive: 99.7%
23,CCc1ccc2n(-c3ccc(OC)cc3)c([S-])c(C(=O)Nc3cc(C)cc(C)c3)[n+]2c1,inconclusive: 73.6%

row,Compound,binding response (% of control)
1,CC(C)(C)[C@H]1C=C(C(N)=O)O[C@@H](OCCCCO)C1,inconclusive: 123%
2,Cc1[nH]c(=O)[nH]c(=O)c1/C=N/NC(=O)CCCCCNC(=O)OC(C)(C)C,inconclusive: 130%
3,COc1ccccc1-c1nc2cc3ccccc3cc2nc1-c1ccccc1,inactive: 102%
4,N#C/C(=C(\O)C(F)(F)F)c1nnc2n1CCCCC2,inconclusive: 113%
5,O=C(NC1CCCCC1)Oc1cc2oc(=O)sc2cc1Br,inconclusive: 78.2%
6,Cc1ccc2c(c1)nnn2C1CCN(CC(=O)NNC(=O)c2ccco2)CC1,inactive: 99.6%
7,CCS(=O)(=O)N1CCC(C(=O)NCc2ccc(OC)cc2OC)CC1,inconclusive: 90.1%
8,CCN(CC)C(=O)C(=O)c1cn(CC(=O)NCc2ccc3c(c2)OCO3)c2ccccc12,inconclusive: 89.7%
9,COc1ccccc1NC(=O)Nn1cnnc1,inactive: 91.3%
10,COc1ccc(/C=C2\CCc3ccccc3C2=O)cc1CN1CCOCC1,inconclusive: 114%
11,N#CC(=C=[N-])/C=C(\C(=O)c1ccccc1)[n+]1ccccc1,inconclusive: 201%
12,Cc1ccccc1NC(=O)N1CCN(C(=O)c2ccco2)CC1,inconclusive: 104%
13,CN1CCc2c(sc3c2C(=O)NC(/C=C\c2ccccc2)N3)C1 (stereo unspecified),inconclusive: 113%
14,COc1ccc(C2(C)NC(=O)N(CC(=O)Nc3ccc(S(=O)(=O)N4CCCC4)cc3)C2=O)cc1 (stereo unspecified),inactive: 101%
15,O=C(NCC1CCCO1)C(=O)N/N=C/c1ccc(O)c(Cl)c1 (stereo unspecified),inconclusive: 235%
16,COc1ccc(NC(=O)c2c(Cl)nc3ccccn23)cc1,inconclusive: 101%
17,CCc1ccc2c(c1)c(N=NC1=NC(=O)CS1)c(O)n2C,inactive: 106%
18,N#Cc1cnn2c(-c3ccc(Cl)cc3Cl)ccnc12,inactive: 98.4%
19,COCCN(C(=O)CCc1ccccc1OC)c1nnc(-c2cccnc2)s1,inactive: 102%
20,c1ccc(Oc2c3ccccc3nc3ccccc23)cc1,inconclusive: 87.4%
21,NC(=O)CN1C(=O)/C(=c2\sc3nc(=O)c(Cc4ccccc4)nn3c2=O)c2ccccc21,inconclusive: 69.6%
22,COCCCN1C(=O)C(=O)/C(=C(/O)c2ccc3c(c2)CC(C)O3)C1c1cccnc1 (stereo unspecified),inactive: 93.5%
23,CCOC(=O)C1=C(O)C(=O)N(c2ccc(S(N)(=O)=O)cc2)C1c1cccc([N+](=O)[O-])c1 (stereo unspecified),inconclusive: 58%

# Quoted from the listing.
# Under binding response (% of control), NC(=O)CN1C(=O)/C(=c2\sc3nc(=O)c(Cc4ccccc4)nn3c2=O)c2ccccc21 has the entry inconclusive: 69.6%
# Under binding response (% of control), COCCN(C(=O)CCc1ccccc1OC)c1nnc(-c2cccnc2)s1 has the entry inactive: 102%
